These results are taken from PMC12163073.

Sequences of proteins named here, by UniProt entry; tags and fusion partners are left off.
UniProt Q86WV6: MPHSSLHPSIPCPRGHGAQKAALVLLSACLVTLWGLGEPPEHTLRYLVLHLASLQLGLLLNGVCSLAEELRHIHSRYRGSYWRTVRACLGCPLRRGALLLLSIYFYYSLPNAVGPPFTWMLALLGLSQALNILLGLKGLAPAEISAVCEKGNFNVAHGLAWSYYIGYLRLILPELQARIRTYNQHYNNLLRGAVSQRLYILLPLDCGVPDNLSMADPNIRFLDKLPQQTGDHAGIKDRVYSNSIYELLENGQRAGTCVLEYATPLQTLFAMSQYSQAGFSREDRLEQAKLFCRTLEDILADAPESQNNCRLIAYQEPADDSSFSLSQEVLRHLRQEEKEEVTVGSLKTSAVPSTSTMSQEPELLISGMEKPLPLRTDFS
UniProt P09874: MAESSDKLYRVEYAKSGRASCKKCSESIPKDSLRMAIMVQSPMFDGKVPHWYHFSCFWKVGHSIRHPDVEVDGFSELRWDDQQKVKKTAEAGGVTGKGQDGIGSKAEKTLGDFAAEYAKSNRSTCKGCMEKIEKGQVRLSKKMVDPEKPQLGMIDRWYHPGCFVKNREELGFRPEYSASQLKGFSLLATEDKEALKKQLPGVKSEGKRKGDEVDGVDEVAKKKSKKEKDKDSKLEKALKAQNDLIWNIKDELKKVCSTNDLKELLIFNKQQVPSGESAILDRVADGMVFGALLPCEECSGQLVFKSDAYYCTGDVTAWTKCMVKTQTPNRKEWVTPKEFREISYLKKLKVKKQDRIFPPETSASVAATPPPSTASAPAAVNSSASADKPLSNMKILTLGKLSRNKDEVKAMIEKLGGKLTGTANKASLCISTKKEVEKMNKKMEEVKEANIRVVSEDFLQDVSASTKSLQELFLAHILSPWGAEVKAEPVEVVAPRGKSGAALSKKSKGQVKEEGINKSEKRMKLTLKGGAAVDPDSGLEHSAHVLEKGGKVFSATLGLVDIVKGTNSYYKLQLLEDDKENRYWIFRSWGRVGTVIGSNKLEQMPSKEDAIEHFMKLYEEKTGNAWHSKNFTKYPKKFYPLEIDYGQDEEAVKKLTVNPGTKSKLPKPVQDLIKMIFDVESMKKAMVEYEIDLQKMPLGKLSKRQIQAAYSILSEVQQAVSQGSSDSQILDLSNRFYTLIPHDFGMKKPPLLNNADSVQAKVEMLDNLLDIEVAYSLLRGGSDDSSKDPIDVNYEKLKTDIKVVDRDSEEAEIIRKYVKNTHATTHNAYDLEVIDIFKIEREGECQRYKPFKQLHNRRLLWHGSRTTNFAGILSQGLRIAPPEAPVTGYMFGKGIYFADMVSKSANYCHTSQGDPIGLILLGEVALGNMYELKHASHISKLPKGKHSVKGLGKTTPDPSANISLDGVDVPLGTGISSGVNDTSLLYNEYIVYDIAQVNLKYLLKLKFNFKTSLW
UniProt P11103: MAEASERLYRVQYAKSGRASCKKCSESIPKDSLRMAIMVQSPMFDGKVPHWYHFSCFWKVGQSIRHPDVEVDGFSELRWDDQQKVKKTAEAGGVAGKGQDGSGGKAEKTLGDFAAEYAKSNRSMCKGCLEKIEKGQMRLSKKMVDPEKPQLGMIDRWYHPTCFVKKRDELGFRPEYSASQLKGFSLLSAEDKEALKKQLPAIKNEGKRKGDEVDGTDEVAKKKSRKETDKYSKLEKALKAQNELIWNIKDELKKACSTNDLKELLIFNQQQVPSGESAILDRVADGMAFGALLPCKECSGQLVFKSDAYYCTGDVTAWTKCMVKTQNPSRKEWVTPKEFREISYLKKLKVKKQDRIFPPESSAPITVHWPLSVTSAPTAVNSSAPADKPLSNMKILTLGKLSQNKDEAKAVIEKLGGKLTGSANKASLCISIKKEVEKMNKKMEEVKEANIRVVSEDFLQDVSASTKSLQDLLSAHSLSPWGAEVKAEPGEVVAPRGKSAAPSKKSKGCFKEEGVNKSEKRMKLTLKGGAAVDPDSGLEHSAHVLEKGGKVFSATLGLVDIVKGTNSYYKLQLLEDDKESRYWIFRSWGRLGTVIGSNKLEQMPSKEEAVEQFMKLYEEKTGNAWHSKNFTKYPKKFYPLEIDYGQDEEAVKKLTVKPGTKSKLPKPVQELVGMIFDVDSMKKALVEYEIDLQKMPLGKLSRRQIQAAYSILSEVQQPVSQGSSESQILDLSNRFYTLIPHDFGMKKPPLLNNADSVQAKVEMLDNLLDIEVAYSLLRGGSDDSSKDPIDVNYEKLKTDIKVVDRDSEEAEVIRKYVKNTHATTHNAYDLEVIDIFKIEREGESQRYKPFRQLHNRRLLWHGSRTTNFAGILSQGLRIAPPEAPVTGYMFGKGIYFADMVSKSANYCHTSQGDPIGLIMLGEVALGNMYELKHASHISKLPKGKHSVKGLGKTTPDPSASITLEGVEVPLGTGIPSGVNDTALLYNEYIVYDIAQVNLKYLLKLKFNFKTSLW

Test [1] deals with stimulator of interferon genes (STING), human, endogenous (human (endogenous in THP-1 and MDA-MB-231)) (UniProt Q86WV6). The test can be described thus: co-IP; lysates (NP40 buffer) of BMDMs or THP-1 cells with and without IR; BMDM lysates immunoprecipitated with anti-STING beads, immunoblotting. In general terms: A western blot detects proteins with antibodies after separation by electrophoresis.

Test [2] shares this target. As to the kind of experiment: proximity ligation; Duolink in situ PLA in MDA-MB-231 cells without irradiation (CON); mouse anti-STING1 and rabbit anti-PARP antibodies.
The target is the same in test [3]. The test can be described thus: proximity ligation; Duolink in situ PLA in MDA-MB-231 cells treated with 20 Gy irradiation; mouse anti-STING1 and rabbit anti-PARP antibodies.
The target in the next test is MYC-tagged STING (UniProt Q86WV6). The test can be described thus: co-IP; lysates of STING^-/- THP-1 cells reconstituted with MYC-tagged STING, after IR; immunoblotting.
Test [4] concerns the target T1, stimulator of interferon genes (STING), mouse, endogenous in BMDMs (mouse (endogenous in BMDMs)) (UniProt Q3TBT3).
T1 sequence: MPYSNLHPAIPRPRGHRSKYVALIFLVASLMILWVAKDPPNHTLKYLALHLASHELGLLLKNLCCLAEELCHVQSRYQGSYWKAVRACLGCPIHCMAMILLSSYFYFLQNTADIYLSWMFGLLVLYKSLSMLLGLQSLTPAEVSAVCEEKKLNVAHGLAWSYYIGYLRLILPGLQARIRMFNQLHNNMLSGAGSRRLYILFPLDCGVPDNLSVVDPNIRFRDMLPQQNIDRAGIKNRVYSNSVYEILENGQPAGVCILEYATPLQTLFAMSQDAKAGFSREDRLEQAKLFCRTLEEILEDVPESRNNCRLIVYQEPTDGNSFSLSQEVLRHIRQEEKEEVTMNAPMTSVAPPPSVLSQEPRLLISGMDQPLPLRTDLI
The test can be described thus: co-IP; lysates (NP40 buffer) of BMDMs or THP-1 cells with and without IR; BMDM lysates immunoprecipitated with anti-STING beads, immunoblotting.

These are yes or no findings as the source states them, for the method shown. In cells and extracts the contact can be indirect. Some results given as binding are weak or reduced against the parent protein; the word gives no strength.

With “poly (ADP-ribose) polymerase-1 (PARP1), human, endogenous (from UniProt P09874 1-1014)”, the binding result in test [1] is on record as “binds”; in test [2], “no binding (condition: cells without radiation)”; in test [3], “binds”; with MYC-tagged STING it was “binds”.
As for “poly (ADP-ribose) polymerase-1 (PARP1), mouse, endogenous in BMDMs (from UniProt P11103 1-1013)”, the binding entry in test [4] is on record as “binds”.
